# Reference: patent publication US20200317753A1
# Results are given in words; binding and its absence hold for the method and conditions named. A result given as binding can be weak or reduced; the word gives no strength.
# B1: chimeric D5 antibody (antibody, V domains shown)
# VH: EVQLQQSGAELVKPGASVKLSCTASGFNIKDTYIHWVKQRPEQGLEWIGKIDPANGNTKYDPKFQDKATITADTSSNTAYLQLSSLTSEDTAVYYCANSNYWFDFDYWGQGTTLTVSS
# VL: DVLMTQTPLSLPVSLGDQASISCRSSQSIVHSNGNTYLEWYLQKPGQSPKLLIYKVSNRFSGVPDRFSGSGSGTDFTLKISRVEADDVGVYYCYQGSHVPYTFGGGTKLEIK
# Target: EV71 virus (Enterovirus 71)
# Assay: preliminary investigations (ELISA and BLI on EV71-VLP)
binder,measurement,value
B1,binding,binds
